Our source for the binding values is article PMC2843647.

Protein sequences, listed by entry. Tags and fused reporters are not part of them. Lines headed by an entry give the natural chain unless they say otherwise; changes in a name come on top.
UniProt Q7Z6E9: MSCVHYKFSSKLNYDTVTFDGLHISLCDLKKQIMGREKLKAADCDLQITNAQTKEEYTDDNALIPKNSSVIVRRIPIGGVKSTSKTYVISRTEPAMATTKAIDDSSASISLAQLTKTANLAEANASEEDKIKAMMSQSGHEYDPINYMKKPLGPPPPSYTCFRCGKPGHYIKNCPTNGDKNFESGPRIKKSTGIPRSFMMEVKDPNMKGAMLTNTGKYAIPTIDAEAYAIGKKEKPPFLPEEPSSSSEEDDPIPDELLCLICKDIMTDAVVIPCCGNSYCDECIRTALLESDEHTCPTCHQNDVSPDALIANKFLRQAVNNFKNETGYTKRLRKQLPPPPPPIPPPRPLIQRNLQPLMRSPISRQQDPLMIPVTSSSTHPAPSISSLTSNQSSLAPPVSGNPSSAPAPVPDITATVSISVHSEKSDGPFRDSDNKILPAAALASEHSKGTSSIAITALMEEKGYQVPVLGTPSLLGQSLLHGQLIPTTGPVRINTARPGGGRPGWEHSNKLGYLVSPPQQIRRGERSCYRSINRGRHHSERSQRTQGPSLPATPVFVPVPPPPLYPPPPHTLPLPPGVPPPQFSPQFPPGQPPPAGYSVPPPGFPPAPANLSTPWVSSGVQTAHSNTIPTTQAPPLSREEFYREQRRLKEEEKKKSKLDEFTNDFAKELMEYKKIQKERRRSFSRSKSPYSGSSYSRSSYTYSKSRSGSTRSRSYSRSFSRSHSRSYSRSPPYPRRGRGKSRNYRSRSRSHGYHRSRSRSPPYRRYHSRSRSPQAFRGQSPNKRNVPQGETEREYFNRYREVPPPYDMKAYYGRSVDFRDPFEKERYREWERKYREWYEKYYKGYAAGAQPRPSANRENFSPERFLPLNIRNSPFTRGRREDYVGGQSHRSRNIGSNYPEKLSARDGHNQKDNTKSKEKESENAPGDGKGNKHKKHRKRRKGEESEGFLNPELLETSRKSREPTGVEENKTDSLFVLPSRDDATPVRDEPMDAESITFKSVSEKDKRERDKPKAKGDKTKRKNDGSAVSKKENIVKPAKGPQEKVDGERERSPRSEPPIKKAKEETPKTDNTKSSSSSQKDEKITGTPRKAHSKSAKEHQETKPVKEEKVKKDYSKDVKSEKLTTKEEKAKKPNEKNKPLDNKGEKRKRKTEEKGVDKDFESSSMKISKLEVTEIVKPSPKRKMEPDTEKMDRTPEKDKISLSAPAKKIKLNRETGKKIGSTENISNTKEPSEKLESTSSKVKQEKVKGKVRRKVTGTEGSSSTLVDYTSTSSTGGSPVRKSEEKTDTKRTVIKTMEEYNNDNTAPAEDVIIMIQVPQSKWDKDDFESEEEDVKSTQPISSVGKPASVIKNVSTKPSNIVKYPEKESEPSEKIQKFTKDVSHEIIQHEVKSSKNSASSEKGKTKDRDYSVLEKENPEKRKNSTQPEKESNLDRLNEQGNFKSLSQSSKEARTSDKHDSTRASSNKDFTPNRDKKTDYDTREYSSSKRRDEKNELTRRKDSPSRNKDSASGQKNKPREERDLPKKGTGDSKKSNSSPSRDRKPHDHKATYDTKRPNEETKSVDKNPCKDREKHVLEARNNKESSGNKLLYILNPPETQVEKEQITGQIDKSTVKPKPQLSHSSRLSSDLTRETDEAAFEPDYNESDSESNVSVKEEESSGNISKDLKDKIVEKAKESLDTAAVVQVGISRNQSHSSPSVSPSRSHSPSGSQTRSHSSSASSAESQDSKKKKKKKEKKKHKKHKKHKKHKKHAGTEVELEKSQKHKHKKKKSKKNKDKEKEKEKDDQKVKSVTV
UniProt Q15788: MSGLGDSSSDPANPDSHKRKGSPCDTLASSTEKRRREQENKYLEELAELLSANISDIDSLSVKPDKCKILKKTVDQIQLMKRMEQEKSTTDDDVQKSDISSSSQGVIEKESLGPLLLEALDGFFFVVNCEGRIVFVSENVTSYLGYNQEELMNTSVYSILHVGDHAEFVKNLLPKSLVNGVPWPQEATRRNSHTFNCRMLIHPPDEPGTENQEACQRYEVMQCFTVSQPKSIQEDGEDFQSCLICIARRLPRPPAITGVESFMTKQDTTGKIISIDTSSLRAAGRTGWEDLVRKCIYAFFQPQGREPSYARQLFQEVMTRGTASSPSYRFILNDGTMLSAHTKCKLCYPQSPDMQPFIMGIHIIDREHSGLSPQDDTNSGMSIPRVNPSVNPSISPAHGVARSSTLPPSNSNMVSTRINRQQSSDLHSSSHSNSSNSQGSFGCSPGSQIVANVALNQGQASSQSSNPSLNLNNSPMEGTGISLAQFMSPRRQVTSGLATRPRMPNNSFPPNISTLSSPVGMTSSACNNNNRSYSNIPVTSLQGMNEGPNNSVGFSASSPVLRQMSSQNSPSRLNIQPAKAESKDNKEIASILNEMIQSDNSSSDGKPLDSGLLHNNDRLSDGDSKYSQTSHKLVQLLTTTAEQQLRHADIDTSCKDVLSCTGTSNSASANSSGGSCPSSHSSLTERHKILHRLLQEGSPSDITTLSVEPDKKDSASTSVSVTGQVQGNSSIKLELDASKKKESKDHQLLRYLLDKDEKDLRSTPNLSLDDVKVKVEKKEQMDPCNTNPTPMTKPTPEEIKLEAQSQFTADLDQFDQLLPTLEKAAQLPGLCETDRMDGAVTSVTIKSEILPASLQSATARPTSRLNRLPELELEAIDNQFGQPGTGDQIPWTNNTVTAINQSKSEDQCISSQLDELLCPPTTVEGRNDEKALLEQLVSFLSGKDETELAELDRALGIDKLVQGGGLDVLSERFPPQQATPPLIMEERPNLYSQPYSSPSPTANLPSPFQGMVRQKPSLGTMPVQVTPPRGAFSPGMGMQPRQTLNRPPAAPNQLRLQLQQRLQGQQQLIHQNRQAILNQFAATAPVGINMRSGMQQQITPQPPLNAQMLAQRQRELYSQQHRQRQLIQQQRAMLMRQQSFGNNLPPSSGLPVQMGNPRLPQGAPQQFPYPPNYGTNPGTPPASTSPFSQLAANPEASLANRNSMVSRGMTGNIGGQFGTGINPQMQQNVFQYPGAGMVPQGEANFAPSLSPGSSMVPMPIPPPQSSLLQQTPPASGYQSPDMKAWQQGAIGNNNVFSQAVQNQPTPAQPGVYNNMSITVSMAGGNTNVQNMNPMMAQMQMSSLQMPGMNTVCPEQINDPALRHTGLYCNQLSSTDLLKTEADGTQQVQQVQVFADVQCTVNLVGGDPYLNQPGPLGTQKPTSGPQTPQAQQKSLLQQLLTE

These are yes or no findings as the source states them, for the method shown. In cells and extracts the contact can be indirect. Some binding calls cover weakened binding; strength is not graded here.

The target of experiment [1] is P2P-R protein (human (endogenous in HeLa and MCF-7)) (UniProt Q7Z6E9). Briefly: co-IP; endogenous proteins, HeLa extracts, about 1 mg of total cell extract per immunoprecipitation; immunoprecipitation with anti-SRC-1 or anti-P2P-R, blot with anti-P2P-R or anti-SRC-1.
The target of experiment [2] is steroid receptor co-activator 1 (human (endogenous in HeLa)) (UniProt Q15788). Described as above.

As to “steroid receptor co-activator 1 (from UniProt Q15788 1-1441)”, in experiment [1], the binding entry is given as “binds”. Take “P2P-R protein (from UniProt Q7Z6E9 1-1792)”: in experiment [2], the binding entry is “binds”.
